# Some of the results follow.
# B1: MXA PilAct-eGFP (Myxococcus xanthus), Q59589 (protein)
# chain: MRVSRFNPRNRGFTLIELMIVVAIIGILAAIAIPNFIKFQARSKQSEAKTNLKALYTAQKSFFSEKDRYSDFANEIGFAPERGNRYGYRVSAAAGDCEVRNAADLPVPAAGVPCISNDSFRFGANSAIDDPTPVVARFVPQGAAGWNTTLGVQPTIADCPNCNFFAGARGNADNEATFDDWVIAGFEGSGQVGPCSEAGNVASGTPYNTRNDVACDGAAQ
# What was measured:
# Experiment in all cases: glycan array binding signal (z-score within array); higher = stronger binding
# Details in all cases: glycan notation: IUPAC condensed, linker removed
# [1] = biological target: Neu5Ac(a2-3)Gal(b1-4)GlcNAc(b1-2)[Neu5Ac(a2-3)Gal(b1-4)GlcNAc(b1-4)]Man(a1-3)[GlcNAc(b1-4)][Neu5Ac(a2-3)Gal(b1-4)GlcNAc(b1-2)[Neu5Ac(a2-3)Gal(b1-4)GlcNAc(b1-6)]Man(a1-6)]Man(b1-4)GlcNAc(b1-4)GlcNAc
# Summary of the method: (§1)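 The binding signal is a Z-score computed within each array and averaged over linkers. Arrays of the same protein sequence at different concentrations or buffers were also averaged together. Data originate from 3228 arrays in the Consortium for Functional Glycomics database, kept only where the protein sequence was available.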
# [2] = biological target: Neu5Ac(a2-3)Gal(b1-4)GlcNAc(b1-2)[Neu5Ac(a2-3)Gal(b1-4)GlcNAc(b1-4)]Man(a1-3)[GlcNAc(b1-4)][Neu5Ac(a2-3)Gal(b1-4)GlcNAc(b1-4)Man(a1-6)]Man(b1-4)GlcNAc(b1-4)GlcNAc
# Summary of the method: as §1
# [3] = biological target: Neu5Ac(a2-3)Gal(b1-4)GlcNAc(b1-2)[Neu5Ac(a2-3)Gal(b1-4)GlcNAc(b1-6)]Man(a1-6)[Neu5Ac(a2-3)Gal(b1-4)GlcNAc(b1-2)Man(a1-3)][GlcNAc(b1-4)]Man(b1-4)GlcNAc(b1-4)GlcNAc
# Summary of the method: as §1
# [4] = biological target: Neu5Ac(a2-3)Gal(b1-4)GlcNAc(b1-3)Gal
# Summary of the method: as §1
# [5] = biological target: Neu5Ac(a2-3)Gal(b1-4)GlcNAc(b1-3)Gal(b1-3)GlcNAc
# Summary of the method: as §1
# [6] = biological target: Neu5Ac(a2-3)Gal(b1-4)GlcNAc(b1-3)Gal(b1-4)GlcNAc
# Summary of the method: as §1
# [7] = biological target: Neu5Ac(a2-3)Gal(b1-4)GlcNAc(b1-3)Gal(b1-4)GlcNAc(b1-2)Man(a1-3)[Neu5Ac(a2-3)Gal(b1-4)GlcNAc(b1-3)Gal(b1-4)GlcNAc(b1-2)Man(a1-6)]Man(b1-4)GlcNAc(b1-4)GlcNAc
# Summary of the method: as §1
# [8] = biological target: Neu5Ac(a2-3)Gal(b1-4)GlcNAc(b1-3)Gal(b1-4)GlcNAc(b1-3)Gal(b1-4)GlcNAc
# Summary of the method: as §1
# [9] = biological target: Neu5Ac(a2-3)Gal(b1-4)GlcNAc(b1-3)Gal(b1-4)GlcNAc(b1-3)Gal(b1-4)GlcNAc(b1-2)Man(a1-3)[Neu5Ac(a2-3)Gal(b1-4)GlcNAc(b1-3)Gal(b1-4)GlcNAc(b1-3)Gal(b1-4)GlcNAc(b1-2)Man(a1-6)]GalNAc
# Summary of the method: as §1
# [10] = biological target: Neu5Ac(a2-3)Gal(b1-4)GlcNAc(b1-3)Gal(b1-4)GlcNAc(b1-3)GalNAc
# Summary of the method: as §1
# [11] = biological target: Neu5Ac(a2-3)Gal(b1-4)GlcNAc(b1-3)Gal(b1-4)GlcNAc(b1-3)[Neu5Ac(a2-3)Gal(b1-4)GlcNAc(b1-3)Gal(b1-4)GlcNAc(b1-6)]GalNAc
# Summary of the method: as §1
# [12] = biological target: Neu5Ac(a2-3)Gal(b1-4)GlcNAc(b1-3)Gal(b1-4)GlcNAc(b1-6)[Gal(b1-3)]GalNAc
# Summary of the method: as §1
# [13] = biological target: Neu5Ac(a2-3)Gal(b1-4)GlcNAc(b1-3)Gal(b1-4)[Fuc(a1-3)]GlcNAc
# Summary of the method: as §1
# [14] = biological target: Neu5Ac(a2-3)Gal(b1-4)GlcNAc(b1-3)GalNAc
# Summary of the method: as §1
# [15] = biological target: Neu5Ac(a2-3)Gal(b1-4)GlcNAc(b1-3)[Neu5Ac(a2-3)Gal(b1-4)GlcNAc(b1-6)]GalNAc
# Summary of the method: as §1
# [16] = biological target: Neu5Ac(a2-3)Gal(b1-4)GlcNAc(b1-6)GalNAc
# Summary of the method: as §1
# [17] = biological target: Neu5Ac(a2-3)Gal(b1-4)GlcNAc(b1-6)[Gal(b1-3)]GalNAc
# Summary of the method: as §1
# [18] = biological target: Neu5Ac(a2-3)Gal(b1-4)GlcNAc(b1-6)[Neu5Ac(a2-3)Gal(b1-3)]GalNAc
# Summary of the method: as §1
# [19] = biological target: Neu5Ac(a2-3)Gal(b1-4)GlcNAc6S
# Summary of the method: as §1
# [20] = biological target: Neu5Ac(a2-3)Gal(b1-4)[Fuc(a1-3)]GlcNAc
# Summary of the method: as §1
# [21] = biological target: Neu5Ac(a2-3)Gal(b1-4)[Fuc(a1-3)]GlcNAc(b1-2)Man
# Summary of the method: as §1
# [22] = biological target: Neu5Ac(a2-3)Gal(b1-4)[Fuc(a1-3)]GlcNAc(b1-3)Gal
# Summary of the method: as §1
# [23] = biological target: Neu5Ac(a2-3)Gal(b1-4)[Fuc(a1-3)]GlcNAc(b1-3)Gal(b1-4)GlcNAc
# Summary of the method: as §1
# [24] = biological target: Neu5Ac(a2-3)Gal(b1-4)[Fuc(a1-3)]GlcNAc(b1-3)Gal(b1-4)[Fuc(a1-3)]GlcNAc(b1-3)Gal(b1-4)[Fuc(a1-3)]GlcNAc
# Summary of the method: as §1
# [25] = biological target: Neu5Ac(a2-3)Gal(b1-4)[Fuc(a1-3)]GlcNAc(b1-3)GalNAc
# Summary of the method: as §1
# [26] = biological target: Neu5Ac(a2-3)Gal(b1-4)[Fuc(a1-3)]GlcNAc(b1-6)[Gal(b1-3)]GalNAc
# Summary of the method: as §1
# [27] = biological target: Neu5Ac(a2-3)Gal(b1-4)[Fuc(a1-3)]GlcNAc(b1-6)[Neu5Ac(a2-3)Gal(b1-3)]GalNAc
# Summary of the method: as §1
# [28] = biological target: Neu5Ac(a2-3)Gal(b1-4)[Fuc(a1-3)]GlcNAc6S
# Summary of the method: as §1
# [29] = biological target: Neu5Ac(a2-3)Gal6S(b1-4)GlcNAc
# Summary of the method: as §1
# [30] = biological target: Neu5Ac(a2-3)Gal6S(b1-4)[Fuc(a1-3)]GlcNAc
# Summary of the method: as §1
# [31] = biological target: Neu5Ac(a2-3)GalNAc
# Summary of the method: as §1
# [32] = biological target: Neu5Ac(a2-3)GalNAc(b1-4)GlcNAc
# Summary of the method: as §1
# [33] = biological target: Neu5Ac(a2-3)[GalNAc(b1-4)]Gal(b1-4)Glc
# Summary of the method: as §1
# [34] = biological target: Neu5Ac(a2-3)[GalNAc(b1-4)]Gal(b1-4)GlcNAc
# Summary of the method: as §1
# [35] = biological target: Neu5Ac(a2-3)[GalNAc(b1-4)]Gal(b1-4)GlcNAc(b1-3)GalNAc
# Summary of the method: as §1
# [36] = biological target: Neu5Ac(a2-3)[Neu5Ac(a2-6)]GalNAc
# Summary of the method: as §1
# [37] = biological target: Neu5Ac(a2-6)Gal
# Summary of the method: as §1
# [38] = biological target: Neu5Ac(a2-6)Gal(b1-3)GlcNAc(b1-3)[Gal(b1-4)GlcNAc(b1-6)]Gal(b1-4)Glc
# Summary of the method: as §1
# [39] = biological target: Neu5Ac(a2-6)Gal(b1-4)Glc
# Summary of the method: as §1
# [40] = biological target: Neu5Ac(a2-6)Gal(b1-4)GlcNAc
# Summary of the method: as §1
# [41] = biological target: Neu5Ac(a2-6)Gal(b1-4)GlcNAc(b1-2)Man
# Summary of the method: as §1
# [42] = biological target: Neu5Ac(a2-6)Gal(b1-4)GlcNAc(b1-2)Man(a1-3)Man(b1-4)GlcNAc(b1-4)GlcNAc
# Summary of the method: as §1
# [43] = biological target: Neu5Ac(a2-6)Gal(b1-4)GlcNAc(b1-2)Man(a1-3)[Gal(b1-4)GlcNAc(b1-2)Man(a1-6)]Man(b1-4)GlcNAc(b1-4)GlcNAc
# Summary of the method: as §1
# [44] = biological target: Neu5Ac(a2-6)Gal(b1-4)GlcNAc(b1-2)Man(a1-3)[GlcNAc(b1-2)Man(a1-6)]Man(b1-4)GlcNAc(b1-4)GlcNAc
# Summary of the method: as §1
# [45] = biological target: Neu5Ac(a2-6)Gal(b1-4)GlcNAc(b1-2)Man(a1-3)[GlcNAc(b1-4)][Neu5Ac(a2-6)Gal(b1-4)GlcNAc(b1-2)Man(a1-6)]Man(b1-4)GlcNAc(b1-4)GlcNAc
# Summary of the method: as §1
binder,measurement,setting,value
B1,glycan array binding signal (z-score),[1],0.702
same,glycan array binding signal (z-score),[2],0.516
same,glycan array binding signal (z-score),[3],0.453
same,glycan array binding signal (z-score),[4],-0.221
same,glycan array binding signal (z-score),[5],-0.899
same,glycan array binding signal (z-score),[6],-0.764
same,glycan array binding signal (z-score),[7],-0.586
same,glycan array binding signal (z-score),[8],0.34
same,glycan array binding signal (z-score),[9],-0.014
same,glycan array binding signal (z-score),[10],-0.775
same,glycan array binding signal (z-score),[11],-0.452
same,glycan array binding signal (z-score),[12],-0.85
same,glycan array binding signal (z-score),[13],-0.755
same,glycan array binding signal (z-score),[14],-1.47
same,glycan array binding signal (z-score),[15],-0.792
same,glycan array binding signal (z-score),[16],-0.341
same,glycan array binding signal (z-score),[17],-0.657
same,glycan array binding signal (z-score),[18],1.55
same,glycan array binding signal (z-score),[19],-0.008
same,glycan array binding signal (z-score),[20],-0.025
same,glycan array binding signal (z-score),[21],2.06
same,glycan array binding signal (z-score),[22],-0.773
same,glycan array binding signal (z-score),[23],-0.9
same,glycan array binding signal (z-score),[24],-0.246
same,glycan array binding signal (z-score),[25],-1.35
same,glycan array binding signal (z-score),[26],0.753
same,glycan array binding signal (z-score),[27],0.345
same,glycan array binding signal (z-score),[28],-0.607
same,glycan array binding signal (z-score),[29],0.862
same,glycan array binding signal (z-score),[30],-0.423
same,glycan array binding signal (z-score),[31],-0.502
same,glycan array binding signal (z-score),[32],-0.67
same,glycan array binding signal (z-score),[33],0.178
same,glycan array binding signal (z-score),[34],-0.027
same,glycan array binding signal (z-score),[35],0.398
same,glycan array binding signal (z-score),[36],-0.688
same,glycan array binding signal (z-score),[37],0.752
same,glycan array binding signal (z-score),[38],1.26
same,glycan array binding signal (z-score),[39],0.005
same,glycan array binding signal (z-score),[40],0.132
same,glycan array binding signal (z-score),[41],-0.318
same,glycan array binding signal (z-score),[42],-0.569
same,glycan array binding signal (z-score),[43],0.401
same,glycan array binding signal (z-score),[44],-0.515
same,glycan array binding signal (z-score),[45],-1.03

# Rewritten as tab-separated lines: entries from further up
binder	measurement	setting	value
B1	glycan array binding signal (z-score)	[17]	-0.657
same	glycan array binding signal (z-score)	[18]	1.55

# From the supplement of paper PMC8728848
